Details: after adventitial infusion of dosages lower than those approved for soft-tissue infiltration

For `C[C@@H]1C[C@H]2[C@@H]3CCC4=CC(=O)C=C[C@]4(C)[C@@]3(F)[C@@H](O)C[C@]2(C)[C@@]1(O)C(=O)CO` [dexamethasone], the “retention in blood vessel wall and adventitia at therapeutic concentrations” value was “at least 7 days”.

Reference: patent publication US20190160257A1, “METHODS AND SYSTEMS FOR INHIBITING VASCULAR INFLAMMATION” (Mercator MedSystems, Inc., priority 2002, published 2019)
